According to article PMC8786784:
No constants are given. Whether binding was seen depends on the method and setting. In cells and extracts the contact can be indirect. Here binding means that the protein was enriched with, or labelled near, the bait; the list need not be complete. For some assays here: No binding means not detected with the bait.

Sequences of proteins named here, by UniProt entry; tags and fusion partners are left off.
UniProt P12235: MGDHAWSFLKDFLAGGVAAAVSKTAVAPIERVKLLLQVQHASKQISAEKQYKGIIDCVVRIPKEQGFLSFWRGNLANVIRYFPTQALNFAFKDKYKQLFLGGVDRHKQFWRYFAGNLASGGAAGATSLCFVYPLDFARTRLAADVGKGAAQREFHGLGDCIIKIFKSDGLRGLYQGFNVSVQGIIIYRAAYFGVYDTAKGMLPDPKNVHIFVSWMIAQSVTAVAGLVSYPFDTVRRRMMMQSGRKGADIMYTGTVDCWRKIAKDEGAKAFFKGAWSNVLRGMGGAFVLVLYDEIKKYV
UniProt Q9Y2J2: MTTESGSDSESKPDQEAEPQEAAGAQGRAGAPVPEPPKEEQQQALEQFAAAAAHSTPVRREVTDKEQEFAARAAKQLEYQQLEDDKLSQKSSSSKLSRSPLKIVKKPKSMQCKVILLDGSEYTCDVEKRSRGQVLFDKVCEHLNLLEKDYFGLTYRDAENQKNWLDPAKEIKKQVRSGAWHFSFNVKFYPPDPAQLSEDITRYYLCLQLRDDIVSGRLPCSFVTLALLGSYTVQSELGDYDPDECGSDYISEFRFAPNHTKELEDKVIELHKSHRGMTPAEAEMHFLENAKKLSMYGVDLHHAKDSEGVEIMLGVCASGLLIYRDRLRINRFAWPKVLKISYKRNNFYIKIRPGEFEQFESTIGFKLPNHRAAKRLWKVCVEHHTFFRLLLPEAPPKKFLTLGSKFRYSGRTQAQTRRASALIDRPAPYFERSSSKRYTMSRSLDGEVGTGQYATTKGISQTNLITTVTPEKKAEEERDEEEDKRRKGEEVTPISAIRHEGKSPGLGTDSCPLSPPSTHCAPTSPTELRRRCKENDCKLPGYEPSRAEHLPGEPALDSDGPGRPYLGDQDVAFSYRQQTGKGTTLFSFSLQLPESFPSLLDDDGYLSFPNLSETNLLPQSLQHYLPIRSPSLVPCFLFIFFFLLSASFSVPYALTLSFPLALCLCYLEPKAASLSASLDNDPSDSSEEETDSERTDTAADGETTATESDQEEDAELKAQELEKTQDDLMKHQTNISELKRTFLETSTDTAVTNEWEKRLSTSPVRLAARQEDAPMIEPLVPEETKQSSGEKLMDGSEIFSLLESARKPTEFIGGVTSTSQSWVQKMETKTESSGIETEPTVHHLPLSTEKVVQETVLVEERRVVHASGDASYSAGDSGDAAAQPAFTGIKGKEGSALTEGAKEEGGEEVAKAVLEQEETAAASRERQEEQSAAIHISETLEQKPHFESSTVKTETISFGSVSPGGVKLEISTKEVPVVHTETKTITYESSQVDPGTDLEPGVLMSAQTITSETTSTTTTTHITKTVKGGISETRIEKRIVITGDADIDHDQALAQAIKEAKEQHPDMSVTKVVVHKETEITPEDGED
UniProt P60520: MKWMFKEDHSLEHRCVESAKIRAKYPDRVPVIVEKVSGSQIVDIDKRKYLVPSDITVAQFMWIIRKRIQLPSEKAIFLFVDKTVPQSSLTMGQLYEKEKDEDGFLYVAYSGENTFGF
UniProt O43813: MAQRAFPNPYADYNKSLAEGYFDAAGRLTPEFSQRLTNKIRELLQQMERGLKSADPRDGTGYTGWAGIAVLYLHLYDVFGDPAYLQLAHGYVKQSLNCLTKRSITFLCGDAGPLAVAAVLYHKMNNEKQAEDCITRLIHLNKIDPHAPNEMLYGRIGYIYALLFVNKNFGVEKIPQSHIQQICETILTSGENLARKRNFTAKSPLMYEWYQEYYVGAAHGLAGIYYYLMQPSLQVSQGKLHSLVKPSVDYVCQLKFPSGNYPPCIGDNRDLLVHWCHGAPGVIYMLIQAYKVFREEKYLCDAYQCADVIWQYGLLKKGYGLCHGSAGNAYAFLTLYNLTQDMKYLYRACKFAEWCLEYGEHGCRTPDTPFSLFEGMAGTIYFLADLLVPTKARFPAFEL
UniProt P78559: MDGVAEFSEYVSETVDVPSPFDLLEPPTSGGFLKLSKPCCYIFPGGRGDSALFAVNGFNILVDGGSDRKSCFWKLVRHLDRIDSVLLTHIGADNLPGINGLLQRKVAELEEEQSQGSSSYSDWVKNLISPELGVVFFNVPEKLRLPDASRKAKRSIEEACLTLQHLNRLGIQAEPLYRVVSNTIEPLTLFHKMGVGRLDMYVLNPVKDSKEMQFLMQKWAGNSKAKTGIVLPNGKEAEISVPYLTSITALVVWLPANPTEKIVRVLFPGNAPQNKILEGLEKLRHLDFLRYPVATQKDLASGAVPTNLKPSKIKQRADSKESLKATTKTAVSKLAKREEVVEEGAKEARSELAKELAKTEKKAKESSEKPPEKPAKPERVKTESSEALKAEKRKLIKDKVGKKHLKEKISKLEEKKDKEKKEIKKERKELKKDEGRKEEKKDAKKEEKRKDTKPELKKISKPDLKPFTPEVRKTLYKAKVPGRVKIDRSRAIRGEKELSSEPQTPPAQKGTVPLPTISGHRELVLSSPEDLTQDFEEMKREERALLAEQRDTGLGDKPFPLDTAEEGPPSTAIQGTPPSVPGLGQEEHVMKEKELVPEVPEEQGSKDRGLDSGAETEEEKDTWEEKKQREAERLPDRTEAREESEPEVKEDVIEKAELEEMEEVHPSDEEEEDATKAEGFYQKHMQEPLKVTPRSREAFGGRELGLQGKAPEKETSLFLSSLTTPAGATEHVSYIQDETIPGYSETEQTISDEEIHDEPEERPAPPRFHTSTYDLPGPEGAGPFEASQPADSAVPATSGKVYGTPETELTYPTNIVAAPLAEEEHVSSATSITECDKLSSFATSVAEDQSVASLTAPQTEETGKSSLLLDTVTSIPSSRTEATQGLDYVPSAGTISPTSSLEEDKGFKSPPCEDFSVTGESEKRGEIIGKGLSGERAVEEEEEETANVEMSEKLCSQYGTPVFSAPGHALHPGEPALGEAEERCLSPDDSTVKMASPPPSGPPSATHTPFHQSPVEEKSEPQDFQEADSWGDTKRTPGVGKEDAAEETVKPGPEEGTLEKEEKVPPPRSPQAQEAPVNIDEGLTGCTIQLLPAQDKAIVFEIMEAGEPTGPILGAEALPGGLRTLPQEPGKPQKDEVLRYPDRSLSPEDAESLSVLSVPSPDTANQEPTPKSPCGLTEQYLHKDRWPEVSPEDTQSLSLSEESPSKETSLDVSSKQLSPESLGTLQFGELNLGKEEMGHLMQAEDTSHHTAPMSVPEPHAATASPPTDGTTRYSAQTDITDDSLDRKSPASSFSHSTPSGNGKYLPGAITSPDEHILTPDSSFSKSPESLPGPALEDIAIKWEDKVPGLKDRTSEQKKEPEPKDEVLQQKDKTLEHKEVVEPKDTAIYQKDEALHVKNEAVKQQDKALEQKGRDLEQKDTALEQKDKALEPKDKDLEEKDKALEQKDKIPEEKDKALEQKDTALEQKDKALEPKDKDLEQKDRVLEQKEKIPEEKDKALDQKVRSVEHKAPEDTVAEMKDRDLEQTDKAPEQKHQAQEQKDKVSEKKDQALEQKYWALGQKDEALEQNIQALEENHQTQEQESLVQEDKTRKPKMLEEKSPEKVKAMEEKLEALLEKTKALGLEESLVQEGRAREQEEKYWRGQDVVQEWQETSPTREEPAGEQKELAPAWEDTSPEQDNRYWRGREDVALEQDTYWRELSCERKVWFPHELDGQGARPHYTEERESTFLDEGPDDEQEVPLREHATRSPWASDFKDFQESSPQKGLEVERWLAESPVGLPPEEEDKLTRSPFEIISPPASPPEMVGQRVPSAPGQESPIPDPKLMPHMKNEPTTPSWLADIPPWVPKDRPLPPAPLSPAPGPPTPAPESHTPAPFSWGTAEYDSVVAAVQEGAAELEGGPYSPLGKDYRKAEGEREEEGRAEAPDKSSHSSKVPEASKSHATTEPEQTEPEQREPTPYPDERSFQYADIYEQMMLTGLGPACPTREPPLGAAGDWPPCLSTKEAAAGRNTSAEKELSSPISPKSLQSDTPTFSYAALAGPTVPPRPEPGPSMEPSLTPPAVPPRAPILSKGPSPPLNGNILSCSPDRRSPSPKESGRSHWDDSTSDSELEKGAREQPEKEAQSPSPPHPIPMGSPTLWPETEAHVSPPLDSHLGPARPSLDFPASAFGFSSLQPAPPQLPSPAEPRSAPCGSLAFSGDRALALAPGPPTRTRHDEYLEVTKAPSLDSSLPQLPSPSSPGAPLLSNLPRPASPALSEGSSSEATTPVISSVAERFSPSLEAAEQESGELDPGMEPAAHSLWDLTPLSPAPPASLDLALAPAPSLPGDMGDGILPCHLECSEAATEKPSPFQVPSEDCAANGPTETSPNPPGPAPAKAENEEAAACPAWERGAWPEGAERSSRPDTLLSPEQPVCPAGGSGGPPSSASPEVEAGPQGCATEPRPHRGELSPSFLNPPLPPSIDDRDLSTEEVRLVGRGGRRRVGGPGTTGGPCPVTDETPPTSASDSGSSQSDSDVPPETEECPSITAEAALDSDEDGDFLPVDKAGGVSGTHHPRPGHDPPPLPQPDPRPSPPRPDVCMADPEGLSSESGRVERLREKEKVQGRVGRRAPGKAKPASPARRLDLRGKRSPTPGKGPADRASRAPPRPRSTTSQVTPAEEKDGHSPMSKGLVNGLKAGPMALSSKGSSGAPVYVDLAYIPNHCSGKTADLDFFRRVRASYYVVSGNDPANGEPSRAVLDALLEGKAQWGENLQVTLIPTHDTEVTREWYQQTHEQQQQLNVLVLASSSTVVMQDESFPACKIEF
UniProt P21579: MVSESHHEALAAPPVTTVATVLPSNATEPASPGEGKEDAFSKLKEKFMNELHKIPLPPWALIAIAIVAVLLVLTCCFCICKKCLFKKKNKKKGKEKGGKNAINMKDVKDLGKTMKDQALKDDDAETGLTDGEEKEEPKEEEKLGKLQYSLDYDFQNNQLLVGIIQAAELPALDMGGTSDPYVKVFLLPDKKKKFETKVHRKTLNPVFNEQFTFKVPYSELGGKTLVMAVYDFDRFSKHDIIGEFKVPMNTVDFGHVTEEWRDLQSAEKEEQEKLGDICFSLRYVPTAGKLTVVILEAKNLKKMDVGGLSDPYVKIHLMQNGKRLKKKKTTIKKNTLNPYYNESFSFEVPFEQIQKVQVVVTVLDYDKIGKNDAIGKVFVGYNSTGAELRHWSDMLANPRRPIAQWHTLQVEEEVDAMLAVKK
UniProt Q13509: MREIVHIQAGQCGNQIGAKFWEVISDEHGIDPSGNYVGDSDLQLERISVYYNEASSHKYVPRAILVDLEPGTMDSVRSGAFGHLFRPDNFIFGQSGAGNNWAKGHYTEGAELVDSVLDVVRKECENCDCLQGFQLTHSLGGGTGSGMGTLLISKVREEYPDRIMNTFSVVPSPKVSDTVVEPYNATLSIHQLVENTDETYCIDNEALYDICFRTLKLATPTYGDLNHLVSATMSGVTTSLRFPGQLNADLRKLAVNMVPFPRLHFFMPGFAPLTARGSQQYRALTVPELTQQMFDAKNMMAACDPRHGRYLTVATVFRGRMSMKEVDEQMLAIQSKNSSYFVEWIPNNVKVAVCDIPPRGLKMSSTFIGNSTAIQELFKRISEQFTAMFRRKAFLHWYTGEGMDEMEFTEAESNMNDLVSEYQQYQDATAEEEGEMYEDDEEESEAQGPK

Tests used:
[1] = target: amyloid-β (Aβ) peptide (human (endogenous in brain tissue)) (UniProt P05067); experiment: affinity purification with mass spectrometry; co-IP of Aβ from the tris-soluble fraction (500 ug protein) of human frontal cortex (controls, sAD, rpAD; n = 4) on Dynabeads coated with antibodies 4G8 and 6E10, overnight at 4 °C, washes with 0.3% CHAPS; LC-ESI MS/MS of the tryptic digest
[2] = target: amyloid-β (Aβ) peptide (human (endogenous in brain tissue)) (UniProt P05067); experiment: condition: only tris-soluble fraction of sAD brains; affinity purification with mass spectrometry; as a1, tris-soluble fraction of sAD brains only

**Q.** For “ADP/ATP translocase 1 (from UniProt P12235 1-298)”, which binding [1] is on record?
**A.** Its binding is “binds”.

**Q.** Which binding [1] does the source give for “ATP synthase subunit beta (from UniProt P06576 48-529)” here?
**A.** The binding was “binds”.

**Q.** “Band 4.1-like protein 3 (from UniProt Q9Y2J2 1-1087)” was tested. Which binding [1] did it give?
**A.** Its binding is “binds”.

**Q.** “GABA receptor-associated protein-like 2 (from UniProt P60520 1-117)” was tested. Which binding [1] did it give?
**A.** The binding was “binds”.

**Q.** GTPase KRas (from UniProt P01116 1-189) was tested. Which binding [2] did it give?
**A.** Its binding is “no binding”.

**Q.** What about the binding [1] of the same substance?
**A.** Its binding is “binds”.

**Q.** For “LanC-like protein 1 (from UniProt O43813 1-399)”, which binding [1] is on record?
**A.** Its binding is “binds”.

**Q.** With “Microtubule-associated protein 1A (from UniProt P78559 1-2803)” as the substance, how does the binding [1] read?
**A.** Its binding is “binds”.

**Q.** How did the binding [2] turn out when “Synaptotagmin-1 (from UniProt P21579 1-422)” was run?
**A.** The binding was “no binding”.

**Q.** What about the binding [1] of the same substance?
**A.** Its binding is “binds”.

**Q.** How did the binding [1] turn out when “Tubulin beta-3 chain (from UniProt Q13509 1-450)” was run?
**A.** Its binding is “binds”.
